Assay results: US9938335B2, “Glucagon and GLP-1 co-agonist compounds” (Eli Lilly and Company, priority 2015, dated 2018)
Some results were stated once for a whole list of compounds, not compound by compound. Starred links: 1 amine or outer side, 2 acyl side, 3 side chain; linkers in the order of their positions; H or OH if unused. Non-standard residues stand in square brackets, D forms with d. Residues, ends and D or L forms follow the SMILES beside them. Groups on a side chain read outwards from the residue. *: point of attachment. C20 diacid = O=C(O)CCCCCCCCCCCCCCCCCCC(=O)*; C18 diacid = O=C(O)CCCCCCCCCCCCCCCCC(=O)*; γGlu = O=C(O)[C@H](CCC(=O)[*:2])N[*:1]; AEEA = NCCOCCOCC(=O)O; Aib = CC(C)(N)C(=O)O

How the values were obtained:
Format in all cases: in vivo, mouse
DIO mice (C57BL/6) [1] = assay: Chronic treatment in DIO mice (body weight, fat, food intake)
Protocol: The effects on food intake and body weight/fat are evaluated in DIO mice. Five to six months old DIO mice (C57BL/6) from Taconic Biosciences are used in this study. Animals are individually housed in a temperature-controlled (24° C.) facility with a 12 hour light/dark cycle (lights on 6:00), and free access to food and water. The mice are acclimated to the facility for two weeks. The day before the study start, fat mass is measured by nuclear magnetic resonance (NMR) using an Echo Medical System (Houston, Tex.) instrument. The mice are randomized to treatment groups (N=7/group) based on body weight and fat mass so each group had similar starting mean body weight and fat mass. […] SC injections are made on Day 1, 4, 7, 10, and 13. Body weight and food intake are measured right before each injection throughout the study. Percent changes in body weight are calculated as follows: […]
At the completion of the study, total fat mass is measured again by NMR. Statistics are analyzed using ANOVA with Dunnett's comparison by JMP 6. Significance is denoted at p≤0.05 vs. vehicle.

DIO mice (C57BL/6) [2] = assay: Glycemic control in DIO mice; conditions: male DIO mice, 25 nmol/kg sc once
Protocol: Five to six months old male DIO mice (C57BL/6) from Taconic Biosciences are used in this study. Animals are individually housed in a temperature-controlled (24° C.) facility with a 12 hour light/dark cycle (lights on 6:00), and free access to food and water. After two weeks acclimation to the facility, the mice are randomized to treatment groups (n=7/group) based on their body weight and blood glucose. Mice are injected subcutaneously once with vehicle or compounds (25 nmol/kg). Blood glucose is monitored 2 and 8 hours post-injection and then once a day at 08:00 for 4 days. OGTTs are performed at 44 and 78 hours post the peptide injection. Statistics are analyzed using ANOVA with Dunnett's comparison by JMP 6. Significance is denoted at p≤0.05 vs vehicle.

DIO mice (C57BL/6) [3] = assay: Acute treatment in DIO mice (PCSK9, FGF-21, cholesterol)
Protocol: In order to investigate metabolic pathways involved with the treatment of compounds of the present invention independent of weight loss, compounds are tested in DIO mice (C57BL/6) acutely. The mice used are three to four months old on a high fat diet for at least 4 weeks. Animals are individually housed in a temperature-controlled (24° C.) facility with a 12 hour light/dark cycle (lights on 6:00), and free access to food and water. Vehicle or testing compounds were administered to mice by subcutaneous injection at 16:00 the day before the study day. Animals were sacrificed 16 hours later to collect blood via cardia puncture. Statistics are analyzed using ANOVA with Dunnett's comparison for JMP-6. Significance is denoted at p≤0.05 vs vehicle.
Food intake was decreased to a similar level in all treatment groups, which may indicate that changes in cholesterol, PCSK9 and FGF-21 are food-intake independent.

CC(C)C[C@H](NC(=O)[C@H](CC(C)C)NC(=O)[C@H](Cc1c[nH]c2ccccc12)NC(=O)[C@H](CCC(=O)O)NC(=O)[C@@H](NC(=O)[C@H](Cc1ccccc1)NC(=O)[C@H](CCC(=O)O)NC(=O)[C@H](CCCCNC(=O)COCCOCCNC(=O)COCCOCCNC(=O)CC[C@H](NC(=O)CCCCCCCCCCCCCCCCC(=O)O)C(=O)O)NC(=O)[C@H](C)NC(=O)[C@H](CCCCN)NC(=O)[C@H](CCCCN)NC(=O)[C@H](CCC(=O)O)NC(=O)[C@H](CC(=O)O)NC(=O)[C@H](CC(C)C)NC(=O)[C@H](Cc1ccc(O)cc1)NC(=O)[C@H](CCCCN)NC(=O)[C@H](CO)NC(=O)[C@H](Cc1ccc(O)cc1)NC(=O)[C@H](CC(=O)O)NC(=O)[C@H](CO)NC(=O)[C@@H](NC(=O)[C@H](Cc1ccccc1)NC(=O)[C@@H](NC(=O)CNC(=O)[C@H](CCC(N)=O)NC(=O)C(C)(C)NC(=O)[C@@H](N)Cc1c[nH]cn1)[C@@H](C)O)[C@@H](C)O)C(C)C)C(=O)N[C@@H](CCC(=O)O)C(=O)NCC(=O)NCC(=O)N1CCC[C@H]1C(=O)N[C@@H](CO)C(=O)N[C@@H](CO)C(=O)NCC(N)=O [Compound 1]
food intake and body weight/fat (DIO mice (C57BL/6) [1]): reduce food intake and body weight/fat
time post injection up to which blood glucose was lower than the vehicle controls (DIO mice (C57BL/6) [2]): up to 72 hours
serum cholesterol, PCSK9 and FGF-21 levels (DIO mice (C57BL/6) [3]): decrease serum cholesterol and PCSK9 levels and increase FGF-21 levels

CC(C)C[C@H](NC(=O)[C@H](CC(C)C)NC(=O)[C@H](Cc1c[nH]c2ccccc12)NC(=O)[C@H](CCC(=O)O)NC(=O)[C@@H](NC(=O)[C@H](Cc1ccccc1)NC(=O)[C@H](CCC(=O)O)NC(=O)[C@H](CCCCNC(=O)COCCOCCNC(=O)COCCOCCNC(=O)CC[C@H](NC(=O)CCCCCCCCCCCCCCCCCCC(=O)O)C(=O)O)NC(=O)[C@H](C)NC(=O)[C@H](CCCCN)NC(=O)[C@H](CCCCN)NC(=O)[C@H](CCC(=O)O)NC(=O)[C@H](CC(=O)O)NC(=O)[C@H](CC(C)C)NC(=O)[C@H](Cc1ccc(O)cc1)NC(=O)[C@H](CCCCN)NC(=O)[C@H](CO)NC(=O)[C@H](Cc1ccc(O)cc1)NC(=O)[C@H](CC(=O)O)NC(=O)[C@H](CO)NC(=O)[C@@H](NC(=O)[C@H](Cc1ccccc1)NC(=O)[C@@H](NC(=O)CNC(=O)[C@H](CCC(N)=O)NC(=O)C(C)(C)NC(=O)[C@@H](N)Cc1c[nH]cn1)[C@@H](C)O)[C@@H](C)O)C(C)C)C(=O)N[C@@H](CCC(=O)O)C(=O)NCC(=O)NCC(=O)N1CCC[C@H]1C(=O)N[C@@H](CO)C(=O)N[C@@H](CO)C(=O)NCC(N)=O [Compound 2]
food intake and body weight/fat (DIO mice (C57BL/6) [1]): reduce food intake and body weight/fat
time post injection up to which blood glucose was lower than the vehicle controls (DIO mice (C57BL/6) [2]): up to 96 hours
serum cholesterol, PCSK9 and FGF-21 levels (DIO mice (C57BL/6) [3]): decrease serum cholesterol and PCSK9 levels and increase FGF-21 levels

CC(C)C[C@H](NC(=O)[C@H](CC(C)C)NC(=O)[C@H](Cc1c[nH]c2ccccc12)NC(=O)[C@H](CCC(=O)O)NC(=O)[C@@H](NC(=O)[C@H](Cc1ccccc1)NC(=O)[C@H](CCC(=O)O)NC(=O)[C@H](CCCCNC(=O)COCCOCCNC(=O)COCCOCCNC(=O)CC[C@H](NC(=O)CC[C@H](NC(=O)CCCCCCCCCCCCCCCCC(=O)O)C(=O)O)C(=O)O)NC(=O)[C@H](C)NC(=O)[C@H](CCCCN)NC(=O)[C@H](CCCCN)NC(=O)[C@H](CCC(=O)O)NC(=O)[C@H](CC(=O)O)NC(=O)[C@H](CC(C)C)NC(=O)[C@H](Cc1ccc(O)cc1)NC(=O)[C@H](CCCCN)NC(=O)[C@H](CO)NC(=O)[C@H](Cc1ccc(O)cc1)NC(=O)[C@H](CC(=O)O)NC(=O)[C@H](CO)NC(=O)[C@@H](NC(=O)[C@H](Cc1ccccc1)NC(=O)[C@@H](NC(=O)CNC(=O)[C@H](CCC(N)=O)NC(=O)C(C)(C)NC(=O)[C@@H](N)Cc1c[nH]cn1)[C@@H](C)O)[C@@H](C)O)C(C)C)C(=O)N[C@@H](CO)C(=O)NCC(=O)NCC(=O)N1CCC[C@H]1C(=O)N[C@@H](CO)C(=O)N[C@@H](CO)C(=O)NCC(N)=O [Compound 3] (H-H[Aib]QGTFTSDYSKYLDEKKAK([AEEA-AEEA-γGlu-γGlu-C18 diacid])EFVEWLLSGGPSSG-NH2; N-terminus assumed)
food intake and body weight/fat (DIO mice (C57BL/6) [1]): reduce food intake and body weight/fat
time post injection up to which blood glucose was lower than the vehicle controls (DIO mice (C57BL/6) [2]): up to 72 hours
serum cholesterol, PCSK9 and FGF-21 levels (DIO mice (C57BL/6) [3]): decrease serum cholesterol and PCSK9 levels and increase FGF-21 levels

CC(C)C[C@H](NC(=O)[C@H](CC(C)C)NC(=O)[C@H](Cc1c[nH]c2ccccc12)NC(=O)[C@H](CCC(=O)O)NC(=O)[C@@H](NC(=O)[C@H](Cc1ccccc1)NC(=O)[C@H](CCC(=O)O)NC(=O)[C@H](CCCCNC(=O)COCCOCCNC(=O)COCCOCCNC(=O)CC[C@H](NC(=O)CC[C@H](NC(=O)CCCCCCCCCCCCCCCCCCC(=O)O)C(=O)O)C(=O)O)NC(=O)[C@H](C)NC(=O)[C@H](CCCCN)NC(=O)[C@H](CCCCN)NC(=O)[C@H](CCC(=O)O)NC(=O)[C@H](CC(=O)O)NC(=O)[C@H](CC(C)C)NC(=O)[C@H](Cc1ccc(O)cc1)NC(=O)[C@H](CCCCN)NC(=O)[C@H](CO)NC(=O)[C@H](Cc1ccc(O)cc1)NC(=O)[C@H](CC(=O)O)NC(=O)[C@H](CO)NC(=O)[C@@H](NC(=O)[C@H](Cc1ccccc1)NC(=O)[C@@H](NC(=O)CNC(=O)[C@H](CCC(N)=O)NC(=O)C(C)(C)NC(=O)[C@@H](N)Cc1c[nH]cn1)[C@@H](C)O)[C@@H](C)O)C(C)C)C(=O)N[C@@H](CO)C(=O)NCC(=O)NCC(=O)N1CCC[C@H]1C(=O)N[C@@H](CO)C(=O)N[C@@H](CO)C(=O)NCC(N)=O [Compound 4] (H-H[Aib]QGTFTSDYSKYLDEKKAK([AEEA-AEEA-γGlu-γGlu-C20 diacid])EFVEWLLSGGPSSG-NH2; N-terminus assumed)
food intake and body weight/fat (DIO mice (C57BL/6) [1]): reduce food intake and body weight/fat
time post injection up to which blood glucose was lower than the vehicle controls (DIO mice (C57BL/6) [2]): up to 96 hours
